Data as given in publication doi:10.1101/2023.09.29.560215.
Results are given in words; binding and its absence hold for the method and conditions named. Some results given as binding are weak or reduced against the parent protein; the word gives no strength.

Biological target: prion-like domain (PLD) linker of CP29A (176-254 aa) (Arabidopsis thaliana) (UniProt Q43349)
Experiment: NMR titration

B1: prion-like domain (PLD) linker of CP29A (176-254 aa) (domain or fragment, UniProt Q43349 176-254)
chain: PPPPKREESFSRGPRSGGYGSERGGGYGSERGGGYGSERGGGYGSERGGGYGSQRSGGGYGGSQRSSYGSGSGSGSGSG
binding: binds weakly
